Laboratory results taken from article PMC8384837.
Substitutions are numbered along the chain they refer to. This is one part of the list.

Experiments:
Conditions in all cases: yeast three-hybrid, YBZ-1, SC-Leu-His + 0.5 mM 3-AT, 4 days
[1] = molecular target: T1, PUM1 PUF domain R5-CAR R1008A + Q1011R (Homo sapiens) (UniProt Q14671)
T1 sequence: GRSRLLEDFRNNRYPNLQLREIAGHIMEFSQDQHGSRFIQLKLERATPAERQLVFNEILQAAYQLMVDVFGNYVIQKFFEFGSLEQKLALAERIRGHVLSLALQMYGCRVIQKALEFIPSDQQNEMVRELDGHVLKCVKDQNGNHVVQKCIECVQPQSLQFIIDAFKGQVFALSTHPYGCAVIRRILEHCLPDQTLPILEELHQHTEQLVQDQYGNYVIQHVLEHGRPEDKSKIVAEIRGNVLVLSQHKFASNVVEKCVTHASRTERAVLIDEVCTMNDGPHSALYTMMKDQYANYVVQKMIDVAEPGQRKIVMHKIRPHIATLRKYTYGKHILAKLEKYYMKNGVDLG

[2] = molecular target: T2, PUM1 PUF domain R5-FHT C1007F + R1008H + Q1011T (Homo sapiens) (UniProt Q14671)
T2 sequence: T1 sequence with C180F, A181H, R184T

[3] = molecular target: T3, PUM1 PUF domain R5-GKD C1007G + R1008K + Q1011D (Homo sapiens) (UniProt Q14671)
T3 sequence: T1 sequence with C180G, A181K, R184D

[4] = molecular target: T4, PUM1 PUF domain R5-GKH C1007G + R1008K + Q1011H (Homo sapiens) (UniProt Q14671)
T4 sequence: T1 sequence with C180G, A181K, R184H

[5] = molecular target: T5, PUM1 PUF domain R5-GKN C1007G + R1008K + Q1011N (Homo sapiens) (UniProt Q14671)
T5 sequence: T1 sequence with C180G, A181K, R184N

[6] = molecular target: T6, PUM1 PUF domain R5-GVR C1007G + R1008V + Q1011R (Homo sapiens) (UniProt Q14671)
T6 sequence: T1 sequence with C180G, A181V

[7] = molecular target: T7, PUM1 PUF domain R5-KGL C1007K + R1008G + Q1011L (Homo sapiens) (UniProt Q14671)
T7 sequence: T1 sequence with C180K, A181G, R184L

[8] = molecular target: T8, PUM1 PUF domain R5-KRF C1007K + Q1011F (Homo sapiens) (UniProt Q14671)
T8 sequence: T1 sequence with C180K, A181R, R184F

[9] = molecular target: T9, PUM1 PUF domain R5-KRK C1007K + Q1011K (Homo sapiens) (UniProt Q14671)
T9 sequence: T1 sequence with C180K, A181R, R184K

[10] = molecular target: T10, PUM1 PUF domain R5-KRR C1007K + Q1011R (Homo sapiens) (UniProt Q14671)
T10 sequence: T1 sequence with C180K, A181R

[11] = molecular target: T11, PUM1 PUF domain R5-KRV C1007K + Q1011V (Homo sapiens) (UniProt Q14671)
T11 sequence: T1 sequence with C180K, A181R, R184V

[12] = molecular target: T12, PUM1 PUF domain R5-KSC C1007K + R1008S + Q1011C (Homo sapiens) (UniProt Q14671)
T12 sequence: T1 sequence with C180K, A181S, R184C

[13] = molecular target: T13, PUM1 PUF domain R5-LWV C1007L + R1008W + Q1011V (Homo sapiens) (UniProt Q14671)
T13 sequence: T1 sequence with C180L, A181W, R184V

[14] = molecular target: T14, PUM1 PUF domain R5-RGK C1007R + R1008G + Q1011K (Homo sapiens) (UniProt Q14671)
T14 sequence: T1 sequence with C180R, A181G, R184K

[15] = molecular target: T15, PUM1 PUF domain R5-RGQ C1007R + R1008G (Homo sapiens) (UniProt Q14671)
T15 sequence: T1 sequence with C180R, A181G, R184Q

[16] = molecular target: T16, PUM1 PUF domain R5-RNS C1007R + R1008N + Q1011S (Homo sapiens) (UniProt Q14671)
T16 sequence: T1 sequence with C180R, A181N, R184S

[17] = molecular target: T17, PUM1 PUF domain R5-RQK C1007R + R1008Q + Q1011K (Homo sapiens) (UniProt Q14671)
T17 sequence: T1 sequence with C180R, A181Q, R184K

[18] = molecular target: T18, PUM1 PUF domain R5-RRF C1007R + Q1011F (Homo sapiens) (UniProt Q14671)
T18 sequence: T1 sequence with C180R, A181R, R184F

[19] = molecular target: T19, PUM1 PUF domain R5-SIS C1007S + R1008I + Q1011S (Homo sapiens) (UniProt Q14671)
T19 sequence: T1 sequence with C180S, A181I, R184S

[20] = molecular target: T20, PUM1 PUF domain R5-SQG C1007S + R1008Q + Q1011G (Homo sapiens) (UniProt Q14671)
T20 sequence: T1 sequence with C180S, A181Q, R184G

Question: For “GGCUAGAACUAGUGGAUCCCCCGGCGCCCGGCGGCUCGAGCCCGGGUAAGUGUAAAUAGUCUGCAUGCCGCCGGGCGCCAUGCCUGCAGGUCGACUCUAGAAAACAUG”, which binding signal (log2 enrichment (interaction score)) [1] is on record?
Answer: The binding signal (log2 enrichment (interaction score)) was 0.26.

Question: And the binding signal (log2 enrichment (interaction score)) [2]?
Answer: The binding signal (log2 enrichment (interaction score)) was 0.41.

Question: And the binding signal (log2 enrichment (interaction score)) [3]?
Answer: The binding signal (log2 enrichment (interaction score)) was 0.32.

Question: And the binding signal (log2 enrichment (interaction score)) [4]?
Answer: Its binding signal (log2 enrichment (interaction score)) is -0.81.

Question: What about the binding signal (log2 enrichment (interaction score)) [5] of the same sequence?
Answer: The binding signal (log2 enrichment (interaction score)) was 0.23.

Question: What about the binding signal (log2 enrichment (interaction score)) [6] of the same sequence?
Answer: The binding signal (log2 enrichment (interaction score)) was 0.36.

Question: What about the binding signal (log2 enrichment (interaction score)) [7] of the same sequence?
Answer: Its binding signal (log2 enrichment (interaction score)) is 0.21.

Question: What about the binding signal (log2 enrichment (interaction score)) [8] of the same sequence?
Answer: Its binding signal (log2 enrichment (interaction score)) is 0.19.

Question: What about the binding signal (log2 enrichment (interaction score)) [9] of the same sequence?
Answer: The binding signal (log2 enrichment (interaction score)) was 0.33.

Question: And the binding signal (log2 enrichment (interaction score)) [10]?
Answer: Its binding signal (log2 enrichment (interaction score)) is 0.16.

Question: And the binding signal (log2 enrichment (interaction score)) [11]?
Answer: Its binding signal (log2 enrichment (interaction score)) is 0.16.

Question: And the binding signal (log2 enrichment (interaction score)) [12]?
Answer: Its binding signal (log2 enrichment (interaction score)) is 0.17.

Question: What about the binding signal (log2 enrichment (interaction score)) [13] of the same sequence?
Answer: Its binding signal (log2 enrichment (interaction score)) is 0.35.

Question: What about the binding signal (log2 enrichment (interaction score)) [14] of the same sequence?
Answer: Its binding signal (log2 enrichment (interaction score)) is 0.17.

Question: And the binding signal (log2 enrichment (interaction score)) [15]?
Answer: The binding signal (log2 enrichment (interaction score)) was 0.44.

Question: And the binding signal (log2 enrichment (interaction score)) [16]?
Answer: The binding signal (log2 enrichment (interaction score)) was -0.38.

Question: What about the binding signal (log2 enrichment (interaction score)) [17] of the same sequence?
Answer: Its binding signal (log2 enrichment (interaction score)) is 0.37.

Question: What about the binding signal (log2 enrichment (interaction score)) [18] of the same sequence?
Answer: Its binding signal (log2 enrichment (interaction score)) is 0.19.

Question: What about the binding signal (log2 enrichment (interaction score)) [19] of the same sequence?
Answer: Its binding signal (log2 enrichment (interaction score)) is 0.39.

Question: And the binding signal (log2 enrichment (interaction score)) [20]?
Answer: Its binding signal (log2 enrichment (interaction score)) is 0.19.
